Experimental data: PubChem BioAssay AID1508597 (Cure First, 2020)
Screen: 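Genes whose silencing sensitises or protects ovarian cancer cells against rucaparib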 (primary screen). System: human ovarian carcinoma lines grown from tumours: OCI-P5x (papillary serous) and OCI-C5x (clear cell). Knock-down reagent: siRNA pool against human genes, 1.25 pmol siRNA per well. Timing: 72 h or 96 h, depending on the cell culture. Treatment: rucaparib 20 µM (about IC30) or vehicle, present until read-out. Rucaparib or vehicle: Rucaparib. Cell line: OCI-C5x (clear cell). Read-out: 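ATP luminescence measured at 72 or 96 h according to the culture, then normalised and expressed as percent viability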. Reading the numbers: viability, normalised: higher = more viable cells remaining. Active means: 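Active when normalised viability falls below 80 percent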. Meaning of the calls: active = viability under 80%; inactive = viability 80% or more.
Shown is a random part of the about 2,100 reagents, in one setting of the screen. 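Calls flag viability under 80% in either arm, not effects specific to rucaparib; the reference for percent is not stated.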 Entries without a mark were called inactive. Not given: the 100% reference.

gene	technical replicate	viability, normalised (%)
SLX4 (GeneID 84464)	1	35.1 (active)
SLX4 (GeneID 84464)	2	40.2 (active)
SLX4 (GeneID 84464)	3	28.9 (active)
PI4K2A (GeneID 55361)	1	55.4 (active)
PI4K2A (GeneID 55361)	2	39.3 (active)
PI4K2A (GeneID 55361)	3	50.7 (active)
RIPK2 (GeneID 8767)	1	50.2 (active)
RIPK2 (GeneID 8767)	2	38.9 (active)
RIPK2 (GeneID 8767)	3	40 (active)
INO80E (GeneID 283899)	1	55.1 (active)
INO80E (GeneID 283899)	2	37.9 (active)
INO80E (GeneID 283899)	3	44.8 (active)

Next part (3 carried over from the part before).
gene	technical replicate	viability, normalised (%)
INO80E (GeneID 283899)	1	55.1 (active)
INO80E (GeneID 283899)	2	37.9 (active)
INO80E (GeneID 283899)	3	44.8 (active)
SMYD4 (GeneID 114826)	1	51.2 (active)
SMYD4 (GeneID 114826)	2	44.2 (active)
SMYD4 (GeneID 114826)	3	69.3 (active)
UNG (GeneID 7374)	1	57.3 (active)
UNG (GeneID 7374)	2	60.5 (active)
UNG (GeneID 7374)	3	58.2 (active)
ZMYND8 (GeneID 23613)	1	73.7 (active)
ZMYND8 (GeneID 23613)	2	81.2
ZMYND8 (GeneID 23613)	3	56.5 (active)
EPHA3 (GeneID 2042)	1	57.3 (active)
EPHA3 (GeneID 2042)	2	59.2 (active)
EPHA3 (GeneID 2042)	3	57.9 (active)
